These are yes or no findings as the source states them, for the method shown. Some binding calls cover weakened binding; strength is not graded here.

Our source for the binding values is patent US6472178.

In assay [1] the target is T1, rat CNTF receptor on rat superior cervical ganglia (SCG) neurons (rat) (UniProt Q08406).
T1 sequence (looked up): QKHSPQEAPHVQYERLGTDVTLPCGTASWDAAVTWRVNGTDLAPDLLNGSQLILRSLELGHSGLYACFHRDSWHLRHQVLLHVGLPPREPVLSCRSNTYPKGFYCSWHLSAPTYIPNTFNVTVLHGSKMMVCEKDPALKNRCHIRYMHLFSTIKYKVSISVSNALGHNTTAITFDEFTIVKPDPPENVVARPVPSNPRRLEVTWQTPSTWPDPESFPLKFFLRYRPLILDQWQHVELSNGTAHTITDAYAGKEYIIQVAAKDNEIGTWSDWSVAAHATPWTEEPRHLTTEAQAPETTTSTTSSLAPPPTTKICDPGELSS
Nature of the assay: competition with 125I-rat CNTF on rat SCG neurons.

Assay [2] has as its target T2, human CNTF receptor α-component on MG87/CNTFR fibroblasts (human) (UniProt P26992).
T2 sequence (looked up): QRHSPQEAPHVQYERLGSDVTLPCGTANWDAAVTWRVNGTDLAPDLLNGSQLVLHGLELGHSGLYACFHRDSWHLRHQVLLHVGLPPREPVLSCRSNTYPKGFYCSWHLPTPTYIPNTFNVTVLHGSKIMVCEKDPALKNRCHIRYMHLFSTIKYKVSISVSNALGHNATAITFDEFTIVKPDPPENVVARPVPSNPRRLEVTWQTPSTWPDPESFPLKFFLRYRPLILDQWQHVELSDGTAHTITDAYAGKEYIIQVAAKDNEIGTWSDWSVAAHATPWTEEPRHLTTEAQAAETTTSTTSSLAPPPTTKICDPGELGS
Description: competition with 125I-rat CNTF on MG87/CNTFR cells.

B1: recombinant rat CNTF (ciliary neurotrophic factor) (ligand)
chain: MAFAEQTPLTLHRRDLCSRSIWLARKIRSDLTALMESYVKHQGLNKNINLDSVDGVPVASTDRWSEMTEAELRQENLQAYRTFQGMLTKLLEDQRVHFTPTEGDFHQAIHTLMLQVSAFAYQLEELMVLLEQKIPENEADGMPATVGDGGLFEKKLWGLKVLQELSQWTVRSIHDLRVISSHQMGISALESHYGAKDKQM
notes: also called unlabelled rat CNTF
With B1, the binding entry in assay [1] and in assay [2] was “binds” in each case.

B2: recombinant human CNTF (ciliary neurotrophic factor) (ligand)
chain: MAFTEHSPLTPHRRDLCSRSIWLARKIRSDLTALTESYVKHQGLNKNINLDSADGMPVASTDQWSELTEAERLQENLQAYRTFHVLLARLLEDQQVHFTPTEGDFHQAIHTLLLQVAAFAYQIEELMILLEYKIPRNEADGMPINVGDGGLFEKKLWGLKVLQELSQWTVRSIHDLRFISSHQTGIPARGSHYIANNKKM
Regarding B2, the binding result in assay [1] was “binds”.
